Values as published with doi:10.1371/journal.pone.0140310, rounded.

Drug key:
tamatinib (0.4 µM): COc1cc(Nc2ncc(F)c(Nc3ccc4c(n3)NC(=O)C(C)(C)O4)n2)cc(OC)c1OC
docetaxel (0.0001 µM): CC(=O)O[C@@]12CO[C@@H]1C[C@H](O)[C@@]1(C)C(=O)[C@H](O)C3=C(C)[C@@H](OC(=O)[C@H](O)[C@@H](NC(=O)OC(C)(C)C)c4ccccc4)C[C@@](O)([C@@H](OC(=O)c4ccccc4)[C@H]21)C3(C)C
SNS-032 (0.01 µM): CC(C)(C)c1cnc(CSc2cnc(NC(=O)C3CCNCC3)s2)o1
nilutamide (1 µM): CC1(C)NC(=O)N(c2ccc([N+](=O)[O-])c(C(F)(F)F)c2)C1=O
GW2580 (1 µM): COc1ccc(COc2ccc(Cc3cnc(N)nc3N)cc2OC)cc1
GW9662 (2 µM): O=C(Nc1ccccc1)c1cc([N+](=O)[O-])ccc1Cl
Src-I1 (2 µM): COc1cc2ncnc(Nc3ccc(Oc4ccccc4)cc3)c2cc1OC
NVP-BEZ235 (0.004 µM): Cn1c(=O)n(-c2ccc(C(C)(C)C#N)cc2)c2c3cc(-c4cnc5ccccc5c4)ccc3ncc21

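Human melanoma cells were exposed to a pair of drugs for 72 h in 1,536-well plates and read by automated microscopy after fixing and staining. Each value is the count of nuclei relative to DMSO-treated wells, in %, so that 100 equals the control. Concentrations were fixed for each drug; these are the lower of two levels, a fifth of the higher. No replicate spread is given; individual values may be noisy.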 An unselected part of the screen is shown. An entry leaves out what has no value listed here. A dash means that no value is listed here.

| # | Pair | G-361 | COLO 800 | 501mel | LB2518-MEL | IST-MEL1 | LOX IMVI | A101D | C32 |
|---|---|---|---|---|---|---|---|---|---|
| 1 | nilutamide + Src-I1 | 109 | 74.0 | 103 | 125 | 113 | 183 | 103 | 116 |
| 2 | GW9662 + GW2580 | 89.4 | 149 | 96.7 | 96.5 | 99.6 | 82.5 | 115 | 94.0 |
| 3 | NVP-BEZ235 + nilutamide | 86.8 | 98.7 | - | 90.2 | 91.3 | 85.4 | 70.1 | 87.9 |
| 4 | tamatinib + nilutamide | 97.7 | 111 | - | 87.9 | 93.2 | 63.1 | 71.7 | 95.8 |
| 5 | docetaxel + Src-I1 | 19.4 | 22.5 | - | - | 69.3 | 68.9 | 62.1 | 86.8 |
| 6 | SNS-032 + tamatinib | 79.6 | 92.2 | - | 75.6 | 96.1 | 61.1 | 85.4 | 108 |
| 7 | tamatinib + NVP-BEZ235 | 86.5 | 118 | - | 78.1 | 80.1 | 119 | 70.3 | 102 |
| 8 | docetaxel + NVP-BEZ235 | 27.4 | 40.9 | - | 71.7 | 52.9 | 51.8 | 59.7 | 72.0 |
| 9 | docetaxel + SNS-032 | 25.6 | 28.6 | - | 70.2 | 65.4 | 77.8 | 75.5 | 84.9 |
| 10 | SNS-032 + GW2580 | 103 | 94.9 | 99.9 | 100 | 103 | 59.9 | 103 | 101 |
| 11 | GW9662 + Src-I1 | 108 | 98.2 | 87.3 | 120 | 87.8 | 114 | 106 | 95.4 |
| 12 | SNS-032 + GW9662 | 98.8 | 93.9 | 93.5 | 109 | 107 | 90.7 | 112 | 101 |
| 13 | GW9662 + tamatinib | 94.9 | 68.8 | 72.9 | 92.7 | 97.4 | 51.9 | 93.4 | 95.0 |
| 14 | nilutamide + docetaxel | 22.9 | 23.0 | - | 63.0 | 68.8 | 65.1 | 61.2 | 109 |
| 15 | NVP-BEZ235 + Src-I1 | 90.5 | 104 | 83.5 | 111 | 80.6 | 150 | 76.4 | 84.7 |
| 16 | GW2580 + docetaxel | 27.7 | 28.1 | 57.9 | 66.9 | 73.5 | 56.7 | 60.5 | 97.4 |
| 17 | SNS-032 + Src-I1 | 99.4 | 111 | - | - | 98.6 | 46.7 | 107 | 114 |
| 18 | nilutamide + GW9662 | 82.9 | 85.6 | 85.8 | 95.6 | 106 | 105 | 86.5 | 107 |
| 19 | GW2580 + nilutamide | 104 | 94.4 | 103 | 102 | 109 | 117 | 117 | 86.1 |
| 20 | Src-I1 + tamatinib | 92.9 | 69.3 | 76.8 | 95.3 | 93.8 | 93.9 | 70.2 | 95.8 |
| 21 | GW2580 + tamatinib | 92.3 | 59.9 | 72.5 | 89.0 | 101 | 85.5 | 93.9 | 85.7 |
| 22 | NVP-BEZ235 + GW2580 | 107 | 132 | 96.8 | 117 | 103 | 101 | 94.1 | 92.3 |
| 23 | tamatinib + docetaxel | 16.4 | 36.5 | - | 41.5 | 56.4 | 38.9 | 48.1 | 81.5 |

The last 2 entries again:

- NVP-BEZ235 + GW2580 | G-361: 107; COLO 800: 132; 501mel: 96.8; LB2518-MEL: 117; IST-MEL1: 103; LOX IMVI: 101; A101D: 94.1; C32: 92.3
- tamatinib + docetaxel | G-361: 16.4; COLO 800: 36.5; LB2518-MEL: 41.5; IST-MEL1: 56.4; LOX IMVI: 38.9; A101D: 48.1; C32: 81.5